# Primary screen of a compound library

Mtb cholesterol medium: 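Whole-cell growth test on Mycobacterium tuberculosis, read after 4 days in a medium based on cholesterol and the lipid DPPC; the read-out is not stated. Tested at 50 µM. The record gives no direction; compounds that gave an IC50 in retests scored well above the rest, so higher reads as more growth inhibition. Of about 69,000 compounds tested this way, about 370 (0.54%) reached 50% or more in at least one test.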
Mtb glucose medium: 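Whole-cell growth test on Mycobacterium tuberculosis, read after 3 days in glucose-containing 7H9 medium; the read-out is not stated. Compounds at 50 µM. Direction is inferred from retests: higher values go with more growth inhibition. About 69,000 compounds were tested under these conditions; 1.1% (about 760) showed 50% or more at least once.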

Values are the deposited “Percent Effect”, in %.
The controls that fix the scale are not given in the record; negative values are as filed.
This is an unselected part of the compounds tested.
Two or more numbers in one place are separate tests of the same structure; such repeats can differ widely.

- CCOC(=O)CNc1nc(COC)nc2c1cnn2C | Mtb cholesterol medium: -9.312%; Mtb glucose medium: -4.075%
- Cc1ccc2c(c1)c(CNC(C)Cn1ccnc1)nn2C (stereo unspecified) | Mtb cholesterol medium: 6.44%; Mtb glucose medium: 17.16%
- O=C(O)C(F)(F)F.[H][C@@]12C[C@H](C(=O)NC)CN(Cc3ccc(F)cc3)[C@]1([H])CCO2 | Mtb cholesterol medium: -12.99% and -18.25%; Mtb glucose medium: -5.625% and -15.3%
- CCOCCNC(=O)C1CCC(=O)N(CCc2ccc(Cl)cc2)C1 (stereo unspecified) | Mtb cholesterol medium: -9.405%; Mtb glucose medium: -8.493%
- O=C1CCN(Cc2cnc3c(-c4ccccc4)cnn3c2)CCN1 | Mtb cholesterol medium: 4.158%; Mtb glucose medium: 0.1713% and 19.19%
- O=C(NC[C@H]1CCCC[C@H]1O)c1cccc2[nH]c(-c3ccco3)nc12 | Mtb cholesterol medium: -15.59%; Mtb glucose medium: -9.826%
- NC(=O)CC1CCCN(c2cncc(OCc3ccccc3)n2)C1 (stereo unspecified) | Mtb cholesterol medium: 4.003%; Mtb glucose medium: -10.69%
- CCCOCC1CCN(C(=O)Cn2ncc(N3CCCC3)cc2=O)C1 (stereo unspecified) | Mtb cholesterol medium: -5.34%; Mtb glucose medium: -31.94%
- CCCNC(=O)CN1CCC(NCc2csc(C(C)C)n2)CC1 | Mtb cholesterol medium: 12.92%; Mtb glucose medium: 1.8% and 5.644%
- CC(C)n1ccnc1C1CCCN(c2ncccc2C(N)=O)C1 (stereo unspecified) | Mtb cholesterol medium: -5.966% and -3.918%; Mtb glucose medium: -3.535%
- CC(=O)N1CCCCC12CCCN(Cc1ccco1)C2.O=C(O)C(F)(F)F (stereo unspecified) | Mtb cholesterol medium: 5.703%; Mtb glucose medium: -4.032%
- CCCC(=O)NC1CCCN(c2cncc(Br)c2)C1 (stereo unspecified) | Mtb cholesterol medium: 15.7%; Mtb glucose medium: 22.9% and 21.77%
- [H][C@]12CC[C@]([H])(CN(Cc3cccnc3N)C1)N(CC=C(C)C)C2=O | Mtb cholesterol medium: -20.32%; Mtb glucose medium: -12.11% and -6.344%
- [H][C@@]12CCN[C@]1([H])CN(S(=O)(=O)c1ccccc1)C2 | Mtb cholesterol medium: -4.427%; Mtb glucose medium: -20.08%
- Cc1cc(C2CCNCC2)nc(-c2ccsc2)n1.Cl | Mtb cholesterol medium: 8.846%; Mtb glucose medium: 2.865%
- Cc1nc2n(n1)CC(Nc1ncnc3c1CCC3)CC2 (stereo unspecified) | Mtb cholesterol medium: 0.4335%; Mtb glucose medium: -8.315%
- CC(=O)NC(C)c1ccc(OCC2CC2)c(F)c1 (stereo unspecified) | Mtb cholesterol medium: 11.27%; Mtb glucose medium: 11.2% and 12.12%
- COc1ccc(C2=CCN(C(=O)CN(C)CC(C)C#N)CC2)cc1 (stereo unspecified) | Mtb cholesterol medium: 21.25%; Mtb glucose medium: 16.16%
- O=C(c1cc2ccccc2[nH]1)N1CCCCC1Cn1cccn1 (stereo unspecified) | Mtb cholesterol medium: 10.19%; Mtb glucose medium: 10.46%
- CCC1c2ccsc2CCN1C(=O)NCc1cc[nH]n1 (stereo unspecified) | Mtb cholesterol medium: -8.465%; Mtb glucose medium: -10.88%
- CCN1CCN(C)C(=O)C12CCN(Cc1ccsc1)CC2.O=C(O)C(F)(F)F | Mtb cholesterol medium: -1.404%; Mtb glucose medium: -18.69%
- CC(C)(C(=O)NCC1CC1)c1ccccc1F | Mtb cholesterol medium: -12.78%; Mtb glucose medium: 2.686% and 0.6529%
- NC(=O)c1cncc(N2CCN(Cc3cccc4nsnc34)CC2)n1 | Mtb cholesterol medium: 29.48%; Mtb glucose medium: 11.73%
- Cc1cc(-c2nccs2)nc(C2CCN(Cc3ccc(F)cc3)CC2)n1.Cl | Mtb cholesterol medium: 29.94%; Mtb glucose medium: 38.4%
- COc1c(Br)cccc1CCNC(=O)c1csnn1 | Mtb cholesterol medium: 35.75%; Mtb glucose medium: 63.29% and 39.08%
- CC(C)CC1CC(=O)Nc2c1cnn2Cc1ccco1 (stereo unspecified) | Mtb cholesterol medium: -13.23%; Mtb glucose medium: 4.109%
- Cc1ccsc1C1CCCCCN1Cc1cn(C)nc1C (stereo unspecified) | Mtb cholesterol medium: 20.27%; Mtb glucose medium: 34.36%
- Cn1cccc1CNC(=O)N(CCO)C1CCCc2ccccc21 (stereo unspecified) | Mtb cholesterol medium: 13.11%; Mtb glucose medium: 4.375% and 31.01%
- O=C(C1CCCCO1)N1CCc2ncnc(NCc3ccon3)c2CC1 (stereo unspecified) | Mtb cholesterol medium: -0.4218%; Mtb glucose medium: -1.174%
- CC(C)(C)c1noc(CNc2ccccc2N2CCC(O)CC2)n1 | Mtb cholesterol medium: 7.906%; Mtb glucose medium: 25.25%
- CSc1ncc(CNCC2(N3CCCCC3)Cc3ccccc3C2)cn1 | Mtb cholesterol medium: 6.263%; Mtb glucose medium: -0.3569%
- Cc1cccc(CN2CC3C[C@]3(NC(=O)c3ccco3)C2)n1 (stereo partly specified) | Mtb cholesterol medium: -22.36%; Mtb glucose medium: -35.43% and -3.561%
- OC(COCc1ccc(Cl)cc1)CN1CCC(c2ccn[nH]2)CC1 (stereo unspecified) | Mtb cholesterol medium: 15.55%; Mtb glucose medium: 29.75%
- COc1ccc(C(=O)N2CCC(Nc3cccnn3)CC2)c(F)c1 | Mtb cholesterol medium: -20.73%; Mtb glucose medium: -17.87%
- COc1cccc(OC)c1C(=O)N1CC(=O)N(C2CCC2)CC(O)C1 (stereo unspecified) | Mtb cholesterol medium: -4.771%; Mtb glucose medium: -9.969%
- CN1CCOC(CNCc2csc(C3CCCC3)n2)C1 (stereo unspecified) | Mtb cholesterol medium: -19.5%; Mtb glucose medium: 6.406%
- C[C@H](NC(=O)c1cccc(CCC(C)(C)O)c1)C(N)=O | Mtb cholesterol medium: -16.25%; Mtb glucose medium: -30.36% and -6.823%
- [H][C@@]12CCN[C@]1([H])C(=O)NC[C@H](CCC(=O)NCc1ccc(F)cc1)N2C | Mtb cholesterol medium: -21%; Mtb glucose medium: -18.75% and -3.15%
- O=C(c1ccc(S(=O)(=O)NCCc2ccccn2)cc1)N1CCCC1 | Mtb cholesterol medium: -2.676%; Mtb glucose medium: -6.663% and -2.749%
- COC1COC2(CCN(Cc3ccc4c(c3)OCO4)CC2)C1.O=C(O)C(F)(F)F (stereo unspecified) | Mtb cholesterol medium: 7.616%; Mtb glucose medium: -0.8758%
- O=C(O)C(F)(F)F.O=C(O)c1cc(NS(=O)(=O)c2ccc(Cl)s2)ccc1N1CCOCC1 | Mtb cholesterol medium: -0.5343%; Mtb glucose medium: -12.95%
- O=C(Cc1cc2c(cc1Br)OCCO2)NC1CCS(=O)(=O)C1 (stereo unspecified) | Mtb cholesterol medium: -25%; Mtb glucose medium: -6.554% and 6.446%
- COc1ccc(NC(=O)Cn2nc(C)c(C(C)=O)c2C)cc1 | Mtb cholesterol medium: 21.84%; Mtb glucose medium: 78.1% and 69.7%
- O=C(O)C(F)(F)F.O=C(O)C(F)(F)F.[H][C@@]12CCCO[C@]1([H])[C@H](N1CCN(C)CC1)CN2C(=O)Cc1ccsc1 | Mtb cholesterol medium: -16.03%; Mtb glucose medium: -11.68%
- O=C(c1ccc(Cl)s1)N1CCCn2nc(CN3CC[C@H](F)C3)cc2C1 | Mtb cholesterol medium: 14.75%; Mtb glucose medium: 17.58% and 4.679%
- CCn1c(CN(C)CC(F)(F)F)nc2c(F)cccc21 | Mtb cholesterol medium: 6.681%; Mtb glucose medium: -16.24%
- CCCN1CCCN(C(=O)C(CC)N2CCCC2=O)CC1 (stereo unspecified) | Mtb cholesterol medium: 5.861%; Mtb glucose medium: -2.206%
- [H][C@@]12CCCC[C@]1([H])C(=O)N(c1cnn(Cc3cccc(OC)c3)c1)C2=O | Mtb cholesterol medium: 7.434%; Mtb glucose medium: 6.2%

Some entries from above, unchanged:

| compound | Mtb cholesterol medium | Mtb glucose medium |
|---|---|---|
| `O=C(c1ccc(S(=O)(=O)NCCc2ccccn2)cc1)N1CCCC1` | -2.676% | -6.663% and -2.749% |
| `CSc1ncc(CNCC2(N3CCCCC3)Cc3ccccc3C2)cn1` | 6.263% | -0.3569% |
| `O=C(NC[C@H]1CCCC[C@H]1O)c1cccc2[nH]c(-c3ccco3)nc12` | -15.59% | -9.826% |
| `NC(=O)CC1CCCN(c2cncc(OCc3ccccc3)n2)C1` (stereo unspecified) | 4.003% | -10.69% |

Data taken from ChEMBL document CHEMBL3988442, “University of Dundee, Small-Polar-MMV Screening Library” (2021).